Source: paper PMC8256288

Legend:
[1] = target: YFP‐tagged B56α; assay: co-IP; peptide competition: the endogenous proteins on YFP-B56α (GFP-trap, mitotic HeLa) with LxxIxE or LxxAxA peptide
[2] = target: YFP‐tagged B56α; assay: co-IP; competition with purified hSgo1 proteins: the endogenous proteins on YFP-B56α (GFP-trap, mitotic HeLa), buffer control against hSgo1
[3] = target: YFP‐B56α R222E; assay: co-IP; YFP-B56α variants purified on GFP-trap from nocodazole-arrested (mitotic shake-off) stable HeLa cells; low salt lysis buffer (50 mM Tris-HCl pH 7.5, 50 mM NaCl, 0.1% NP-40); immunoblot
[4] = target: YFP‐tagged B56α; assay: as above
[5] = target: YFP‐tagged B56α; assay: co-IP; peptide competition: LxxIxE or LxxAxA peptide incubated with the cell lysate 30 min before GFP-trap of YFP-B56α; immunoblot, LI-COR; only the binder purified

binding [1]: binds
binding [2]: binds
binding [3]: no binding
binding [4]: binds
B1: Kif4A (endogenous) (protein, UniProt O95239 1-1232)
chain: MKEEVKGIPVRVALRCRPLVPKEISEGCQMCLSFVPGEPQVVVGTDKSFTYDFVFDPSTEQEEVFNTAVAPLIKGVFKGYNATVLAYGQTGSGKTYSMGGAYTAEQENEPTVGVIPRVIQLLFKEIDKKSDFEFTLKVSYLEIYNEEILDLLCPSREKAQINIREDPKEGIKIVGLTEKTVLVALDTVSCLEQGNNSRTVASTAMNSQSSRSHAIFTISLEQRKKSDKNSSFRSKLHLVDLAGSERQKKTKAEGDRLKEGININRGLLCLGNVISALGDDKKGGFVPYRDSKLTRLLQDSLGGNSHTLMIACVSPADSNLEETLNTLRYADRARKIKNKPIVNIDPQTAELNHLKQQVQQLQVLLLQAHGGTLPGSITVEPSENLQSLMEKNQSLVEENEKLSRGLSEAAGQTAQMLERIILTEQANEKMNAKLEELRQHAACKLDLQKLVETLEDQELKENVEIICNLQQLITQLSDETVACMAAAIDTAVEQEAQVETSPETSRSSDAFTTQHALRQAQMSKELVELNKALALKEALARKMTQNDSQLQPIQYQYQDNIKELELEVINLQKEKEELVLELQTAKKDANQAKLSERRRKRLQELEGQIADLKKKLNEQSKLLKLKESTERTVSKLNQEIRMMKNQRVQLMRQMKEDAEKFRQWKQKKDKEVIQLKERDRKRQYELLKLERNFQKQSNVLRRKTEEAAAANKRLKDALQKQREVADKRKETQSRGMEGTAARVKNWLGNEIEVMVSTEEAKRHLNDLLEDRKILAQDVAQLKEKKESGENPPPKLRRRTFSLTEVRGQVSESEDSITKQIESLETEMEFRSAQIADLQQKLLDAESEDRPKQRWENIATILEAKCALKYLIGELVSSKIQVSKLESSLKQSKTSCADMQKMLFEERNHFAEIETELQAELVRMEQQHQEKVLYLLSQLQQSQMAEKQLEESVSEKEQQLLSTLKCQDEELEKMREVCEQNQQLLRENEIIKQKLTLLQVASRQKHLPKDTLLSPDSSFEYVPPKPKPSRVKEKFLEQSMDIEDLKYCSEHSVNEHEDGDGDDDEGDDEEWKPTKLVKVSRKNIQGCSCKGWCGNKQCGCRKQKSDCGVDCCCDPTKCRNRQQGKDSLGTVERTQDSEGSFKLEDPTEVTPGLSFFNPVCATPNSKILKEMCDVEQVLSKKTPPAPSPFDLPELKHVATEYQENKAPGKKKKRALASNTSFFSGCSPIEEEAH

binding [5]: no binding
B2: control mutant peptide LxxAxA (peptide)
peptide: LPRSSTLPTAHAEEELSLC

binding [5]: binds
B3: peptide containing LxxIxE motif (peptide)
peptide: LPRSSTLPTIHEEEELSLC

Results are given in words; binding and its absence hold for the method and conditions named. In cells and extracts the contact can be indirect. For part of these data: Binding can be weak; no strength is given. Each block holds one binder with its values, some of them ahead of it.
